# In PubChem BioAssay AID2417 (National Center for Advancing Translational Sciences (NCATS), 2010):
# Out of some 140,000 compounds screened, about 4,300 (3.1%) were called active. The shares of active, inactive and inconclusive entries below differ from those in the screen.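 How the source made its calls: active means readout at or below -70, meaning at least 70% loss of cells showing the perinucleolar compartment, a nuclear body marking cancer cells; inconclusive means readout between -30 and a set limit; inactive means the rest.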
# Test: High Content Assay for Compounds that inhibit the Assembly of the Perinucleolar Compartment;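 further: plate controls were DMSO wells for no effect and camptothecin positive control wells for full effect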
# Conditions: PC3M PTB-GFP, PNC prevalence imaging, 16 h; at 10 µM; active compounds read low
# Summary of the method: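 Compounds are pinned in duplicate onto adhered PC3M cells stably expressing GFP-tagged PTB and incubated 16 h at 37 C. Cells are then fixed, nuclei stained with Hoechst, and PNC-positive cells counted.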
row,Structure (SMILES),"activity change (PNC), negative = inhibition"
1,CC1CN(S(=O)(=O)c2cccc(-c3cn4ccccc4n3)c2)CC(C)O1 (stereo not drawn),inconclusive: -40.7%
2,COc1ccc(S(=O)(=O)n2nc(OC(=O)C3CCCCC3)cc2N)cc1,inactive: -1.49%
3,c1ccc(CNc2ccc3c(c2)ncn3C2CCCCC2)nc1,inactive: -10.8%
4,O=S(=O)(c1ccc(Cl)s1)N1CCc2ccccc2C1,inactive: 16.1%
5,O=C(Nc1cnc2ccccc2c1)c1ccco1,inconclusive: -34.3%
6,CCOc1cc2[nH]c(=O)n(CCC(=O)NCCc3ccc(OC)c(OC)c3)c(=O)c2cc1OCC,inconclusive: -49.8%
7,CCN(CC)S(=O)(=O)c1cccc(S(=O)(=O)N2CCCCC2)c1,inconclusive: -67.4%
8,Cc1nnc(SCc2ccc(Cl)cc2Cl)[nH]c1=O,inconclusive: -45.7%
9,Cc1cccc(NC(=O)/C=C/c2ccc(Cl)cc2)n1,inactive: 28.9%
10,Cn1cc([N+](=O)[O-])c(C(=O)N/N=C/c2ccccc2)n1,inconclusive: -32.5%
11,NC(=O)Cc1c[nH]c2cccc(O)c12,inconclusive: -30.5%
12,O=C(CCS(=O)(=O)Cc1ccccc1)Nc1nc2c(s1)CCCC2,inconclusive: -72.3%
13,Cc1cc(C)c(S(=O)(=O)/N=C2/C=C(Sc3ncn[nH]3)C(=O)c3ccccc32)cc1C,inconclusive: -74.8%
14,C=CCn1c(CCCNC(=O)C(C)(C)C)nc2ccccc21,inconclusive: -67.8%
15,Cc1ccc(C(=O)ON=C2CCN(S(=O)(=O)c3ccccc3)CC2)cc1,inactive: 74.8%
16,COc1cccc(C(=O)Nc2ccc(NC(C)=O)cn2)c1,active: -116%
17,CCn1c(NC(=O)c2nn(C)cc2Br)nc2ccccc21,active: -114%
18,COc1ccc(OC)c(-c2nnc(NC(=O)C(C)Sc3nncn3C)s2)c1 (stereo not drawn),inconclusive: -77.3%
19,Cc1cccc(N2CC(C)Cn3c2nc2c3c(=O)n(CC(=O)OCc3ccccc3)c(=O)n2C)c1 (stereo not drawn),inconclusive: -36.8%
20,CCN(C(=O)CSc1nnc(-c2ccncc2)n1C)C1CCS(=O)(=O)C1 (stereo not drawn),inconclusive: -31.8%
21,O=C(CN(C(=O)c1ccc(Cl)cc1)C1CCCCC1)Nc1ccc(Cl)c([N+](=O)[O-])c1,inconclusive: -34.8%
22,Oc1c(C=NCc2ccncc2)sc2ccccc12,inconclusive: -30.4%
23,CCN(CCO)Cc1csc2c(Br)cccc12,inconclusive: -34.2%
24,CC(C)n1nnnc1-c1cccc(Cl)c1,inconclusive: -46%

# A draw from above in order of SMILES length, largest number first.
row,Structure (SMILES),"activity change (PNC), negative = inhibition"
6,CCOc1cc2[nH]c(=O)n(CCC(=O)NCCc3ccc(OC)c(OC)c3)c(=O)c2cc1OCC,inconclusive: -49.8%
18,COc1ccc(OC)c(-c2nnc(NC(=O)C(C)Sc3nncn3C)s2)c1 (stereo not drawn),inconclusive: -77.3%
8,Cc1nnc(SCc2ccc(Cl)cc2Cl)[nH]c1=O,inconclusive: -45.7%

# The listing continues:

row,Structure (SMILES),"activity change (PNC), negative = inhibition"
1,CC(=O)Nc1c(C(=O)N2CCOCC2)cnn1-c1ccc(C)c(C)c1,inactive: 15%
2,O=C(c1ccccc1)N1CCN(c2ccccc2F)CC1,inconclusive: -49.7%
3,COc1ccc2[nH]c(=O)c(CNc3cccc(C)c3)cc2c1,inactive: 14.1%
4,COc1ccc(C(=O)N(c2ccc(OC)cc2)S(=O)(=O)c2cccs2)cc1,inactive: 27.9%
5,NC(=O)c1cccc(S(=O)(=O)N2CCCCC2)c1,inconclusive: -50.9%
6,CCSc1ccccc1C(=O)NCc1ccco1,inconclusive: -50.6%
7,CCCCC(c1nnnn1CC1CCCO1)N1CCN(c2nc3ccccc3s2)CC1 (stereo not drawn),inconclusive: -60.8%
8,CCC(C)(C)NC(=O)CN(C(=O)CCC(=O)Nc1cc(C)ccn1)c1ccc2c(c1)OCO2,inactive: 42.2%
9,C=CCOc1ccc2nc(NC(=O)OC)[nH]c2c1,inconclusive: -67.7%
10,Clc1ccc(C(c2nnnn2C2CCCC2)N2CCSCC2)cc1 (stereo not drawn),inactive: 14.7%
11,O=C(NCCc1ccccn1)c1cc(-c2cccc3ccccc23)nc2ccccc12,inactive: 31.5%
12,Cc1ccc(-n2c(Cc3cccn3C)nnc2SCC(=O)NCc2ccco2)cc1,inconclusive: -36.2%
13,Cc1c(NC(=O)C(C)OC(=O)c2ccc(Cl)nc2)c(=O)n(-c2ccccc2)n1C (stereo not drawn),inconclusive: -38.2%
14,Cn1cnnc1SCc1ccccc1,inactive: 11.2%
15,OC(COCC(F)(F)C(F)(F)C(F)(F)C(F)F)Cn1c2ccccc2c2ccccc21 (stereo not drawn),inconclusive: -31%
16,CN(C)CCCC(C)(O)C(Cc1ccccc1)c1ccccc1 (stereo not drawn),inconclusive: -50.3%
17,O=C1C=CCC(/C=C/c2ccccc2)O1 (stereo not drawn),inconclusive: -59.9%
18,CCOc1ccc(-n2c(Cc3cc(=O)[nH]c(=O)[nH]3)nnc2SC(C)C)cc1,inconclusive: -49%
19,O=C(/C=C/Sc1ccccc1)c1ccccc1,inconclusive: -34.9%
20,Oc1ccc(CN2CCCc3ccccc32)c2cccnc12,inconclusive: -34%
21,O=C(NCC1CCCO1)C1CCN(S(=O)(=O)c2cccc3cccnc23)CC1 (stereo not drawn),inactive: -4.19%
22,O=C(CNC1CCCCCC1)Nc1ccc(S(=O)(=O)NC2CC2)cc1,inconclusive: -45%
23,O=C(COc1ccccc1)N/N=C/c1ccc([N+](=O)[O-])o1,inconclusive: -37%
24,Cc1[nH]c(=O)[nH]c(=O)c1NS(=O)(=O)c1ccccc1,inactive: -17.6%

row,Structure (SMILES),"activity change (PNC), negative = inhibition"
1,COc1ccc(C(=O)NCC(C)CN(C)C)cc1 (stereo not drawn),inconclusive: -36.6%
2,Cc1ccc2sc(-c3ccc(NC(=O)CCN4C(=O)c5ccccc5C4=O)cc3)nc2c1,inactive: -3.89%
3,Fc1ccc(-c2nnc3sc(C4COc5ccccc5O4)nn23)cc1 (stereo not drawn),inactive: -27.1%
4,CCOC(=O)c1cnc2cc(-c3ccc(Cl)cc3)nn2c1N,inactive: 4.68%
5,Cn1c(CNS(=O)(=O)c2ccc(Br)cc2)n[nH]c1=S,inconclusive: -58.4%
6,COc1cccc(OCCNC(=O)c2ccccc2Sc2ccccc2C#N)c1,inactive: -29.8%
7,COc1ccc(N(CC(=O)NCc2cccs2)S(=O)(=O)c2c(C)n[nH]c2C)cc1,inconclusive: -35.9%
8,CC1=CN2C(=N)/C(=C/c3ccc([N+](=O)[O-])o3)C(=O)N=C2S1,inconclusive: -35%
9,CCN(CCC(=O)Nc1cc(OC)cc(OC)c1)Cc1ccccc1,inconclusive: -53.2%
10,CC(C)(C)c1cccc(OCCCSc2ncccn2)c1,inconclusive: -30.3%
11,Cc1cc(C)nc(N2CCCC(C(=O)Nc3nnc(C(C)C)s3)C2)n1 (stereo not drawn),active: -100%
12,CCOc1ccc(N2C(=O)CC(NCc3ccc(F)cc3)C2=O)cc1 (stereo not drawn),inconclusive: -34.7%
13,Cc1csc(=Nc2c(C)n(C)n(-c3ccccc3)c2=O)n1Cc1ccccc1,inconclusive: -37.9%
14,C=CCC1(O)C(=O)N2C(=C1C(=O)N1CCOCC1)c1ccccc1CC2(C)C (stereo not drawn),inactive: 19.3%
15,N=c1ccn(Cc2ccc(Cl)cc2Cl)cc1,inactive: 34%
16,CCCCCCc1cc2cc(C(=O)Nc3ccccc3OC)c(=O)oc2cc1O,inconclusive: -52%
17,CN(Cc1ccco1)C(=O)C1CCC(=O)N1Cc1ccc(F)cc1 (stereo not drawn),inactive: 18.3%
18,O=[N+]([O-])c1cnc2ccccc2c1,inactive: -1.92%
19,Cc1ccc(-c2noc(CN3C(C)CCCC3C)n2)cc1 (stereo not drawn),inconclusive: -74.4%
20,Cc1ccc2c(c1)CCCN2C(=O)Nc1ccc2c(c1)OCO2,inactive: 18.6%
21,COc1ccc2c(c1OC)C(=O)OC2Nc1nc(-c2ccc(-c3ccccc3)cc2)cs1 (stereo not drawn),active: -123%
22,CCOc1ccc(NC(=O)Nc2ccc3nccnc3c2)cc1,inconclusive: -40.6%
23,CN1c2ccccc2C(C)(C)C12CC(c1ccc(Cl)c(S(=O)(=O)N3CCCC3)c1)=NO2 (stereo not drawn),active: -121%
24,Cc1cc2oc3c(c(=O)c2cc1C)C(c1ccc(C(C)C)cc1)N(CCCN1CCOCC1)C3=O (stereo not drawn),inactive: 17.4%

row,Structure (SMILES),"activity change (PNC), negative = inhibition"
1,O=C1C2CCCN2C(c2ccccc2F)N1c1cccc(Cl)c1 (stereo not drawn),inconclusive: -59.3%
2,CC(=O)c1ccc(N2CCCC2)c(F)c1,inactive: -20%
3,COC(=O)c1ccc2c(=O)n(CCCN3CCCC3=O)c(=S)[nH]c2c1,inconclusive: -47.5%
4,CCOC(=O)c1c(C)[nH]sc1=S,inactive: 35.2%
5,COc1cc(/C=N/NC(=S)NCc2ccco2)cc(OC)c1OC,inconclusive: -36.1%
6,CC(C)COCC(O)CCC(=O)NNC(=S)Nc1ccccc1 (stereo not drawn),inactive: -18.4%
7,COc1ccc(C(=O)Oc2cc(C)[nH]c(=O)c2[N+](=O)[O-])cc1,inconclusive: -34.4%
8,O=C(NC(=S)Nc1nc(-c2cccc3ccccc23)cs1)c1cc2ccccc2o1,inactive: -1.95%
9,CCOc1cccc(NC(=O)CSc2nc(C)c3c(c2C#N)CCCC3)c1,inactive: 30.8%
10,CCCCC[C@H](O)/C=C/[C@@H]1[C@@H](CCCCCCC(=O)O)[C@@H](O)C[C@H]1O,inactive: 8.57%
11,O=C(CCNc1cccc(C(F)(F)F)c1)c1ccco1,inactive: 15.7%
12,CCC1CSC(Nc2ccc(C(=O)/C=C/c3ccc(Br)cc3)cc2)=N1 (stereo not drawn),active: -103%
13,COc1ccccc1-c1nnc(SCCN2CCOCC2)n1-c1ccc(C)cc1,inconclusive: -31.8%
14,O=C(c1ccc(COc2ccccc2Cl)o1)N1CCCC1,inconclusive: -35.2%
15,O=C(NC(=S)Nc1ccc(N2CCOCC2)c(Cl)c1)C(c1ccccc1)c1ccccc1,inconclusive: -55.1%
16,CCc1c(C)c2ccc(OCC(N)=O)cc2oc1=O,inconclusive: -69.3%
17,COc1cccc(/C(C)=N/NC(=O)c2cc(-c3cccnc3)nc3ccccc23)c1,inconclusive: -50.9%
18,CCC1=NC(c2ccc(OC)cc2OC)N(O)C1(C)C (stereo not drawn),inactive: 12.6%
19,Cn1cc(-c2nnc(-c3ccccc3)o2)c2ccccc21,inactive: 26.9%
20,CCOC(=O)c1c(C)n(CCNC(C)=O)c2ccc(OC)cc12,inconclusive: -32.2%
21,O=C(CN(Cc1cccs1)C(=O)CSc1nnc(COc2ccccc2)o1)NC1CCCC1,inconclusive: -39.5%
